The list shows a part of the results.
Assays:
Assay in all cases: log2 fold change, soluble protein after heating vs DMSO (PISA); higher = thermal stabilisation; K562 lysate, 10 uM; active = over 0.2 and 3.5 SD of the protein, either way, in both replicates (recomputed)
nilotinib = compound: Cc1cn(-c2cc(NC(=O)c3ccc(C)c(Nc4nccc(-c5cccnc5)n4)c3)cc(C(F)(F)F)c2)cn1 [nilotinib]
In short: (§1)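 Quantification was by TMTpro 16plex LC-MS/MS with equalised channel sums, applied to the supernatant after 21,000xg for 90 min. Samples were crude K562 extract at 1 mg/mL protein in PBS pH 7.4 with 1 mM MgCl2, treated with 10 μM compound for 30 min, heated for 3 min across 48°C-58°C, pooled and brought to 0.5% NP-40 at 4°C. Values are log-two fold changes in thermal stability relative to solvent controls, from duplicates.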

Protein sequences, listed by entry. Tags and fused reporters are not part of them. Lines headed by an entry give the natural chain unless they say otherwise; changes in a name come on top.
UniProt Q96C86: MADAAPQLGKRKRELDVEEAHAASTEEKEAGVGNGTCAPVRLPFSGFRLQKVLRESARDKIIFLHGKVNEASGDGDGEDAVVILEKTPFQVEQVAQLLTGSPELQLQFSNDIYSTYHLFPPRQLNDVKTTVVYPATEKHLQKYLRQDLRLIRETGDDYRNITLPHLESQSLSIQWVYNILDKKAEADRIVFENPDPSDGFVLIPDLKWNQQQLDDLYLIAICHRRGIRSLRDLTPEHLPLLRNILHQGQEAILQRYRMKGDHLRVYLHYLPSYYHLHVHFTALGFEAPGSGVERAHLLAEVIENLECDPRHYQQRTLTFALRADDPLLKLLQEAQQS
UniProt Q5QP82: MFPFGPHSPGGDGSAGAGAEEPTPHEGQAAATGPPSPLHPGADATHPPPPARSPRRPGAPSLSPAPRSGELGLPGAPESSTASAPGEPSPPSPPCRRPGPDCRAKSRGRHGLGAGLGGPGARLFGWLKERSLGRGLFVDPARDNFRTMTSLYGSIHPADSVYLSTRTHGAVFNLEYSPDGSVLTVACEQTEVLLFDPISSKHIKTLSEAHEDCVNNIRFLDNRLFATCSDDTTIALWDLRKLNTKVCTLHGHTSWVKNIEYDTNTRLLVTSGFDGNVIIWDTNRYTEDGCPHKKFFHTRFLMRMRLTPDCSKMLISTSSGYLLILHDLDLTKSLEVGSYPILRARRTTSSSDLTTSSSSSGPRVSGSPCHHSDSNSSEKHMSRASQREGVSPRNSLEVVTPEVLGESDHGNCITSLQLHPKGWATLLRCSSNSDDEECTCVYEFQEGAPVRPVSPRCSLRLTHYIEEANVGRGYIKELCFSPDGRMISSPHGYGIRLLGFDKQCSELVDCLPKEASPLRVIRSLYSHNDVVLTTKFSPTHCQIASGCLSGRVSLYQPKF
UniProt Q8N8A6: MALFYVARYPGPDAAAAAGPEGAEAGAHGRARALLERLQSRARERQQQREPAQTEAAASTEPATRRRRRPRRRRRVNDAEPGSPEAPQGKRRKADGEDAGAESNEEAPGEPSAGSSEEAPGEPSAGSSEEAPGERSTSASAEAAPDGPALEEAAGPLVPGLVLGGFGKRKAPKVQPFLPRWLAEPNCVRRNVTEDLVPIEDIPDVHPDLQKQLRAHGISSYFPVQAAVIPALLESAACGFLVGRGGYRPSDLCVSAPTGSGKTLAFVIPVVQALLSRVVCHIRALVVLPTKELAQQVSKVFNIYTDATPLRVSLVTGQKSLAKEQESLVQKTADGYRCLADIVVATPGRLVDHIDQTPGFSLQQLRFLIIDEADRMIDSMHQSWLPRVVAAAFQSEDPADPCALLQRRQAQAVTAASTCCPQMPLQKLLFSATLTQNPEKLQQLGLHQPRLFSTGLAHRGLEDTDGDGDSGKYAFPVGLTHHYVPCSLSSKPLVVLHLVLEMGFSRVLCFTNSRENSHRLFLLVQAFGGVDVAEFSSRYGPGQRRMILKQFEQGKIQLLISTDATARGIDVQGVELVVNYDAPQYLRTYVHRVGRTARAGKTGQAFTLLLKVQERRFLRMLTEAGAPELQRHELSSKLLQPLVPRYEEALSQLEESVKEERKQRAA
UniProt Q96FC9: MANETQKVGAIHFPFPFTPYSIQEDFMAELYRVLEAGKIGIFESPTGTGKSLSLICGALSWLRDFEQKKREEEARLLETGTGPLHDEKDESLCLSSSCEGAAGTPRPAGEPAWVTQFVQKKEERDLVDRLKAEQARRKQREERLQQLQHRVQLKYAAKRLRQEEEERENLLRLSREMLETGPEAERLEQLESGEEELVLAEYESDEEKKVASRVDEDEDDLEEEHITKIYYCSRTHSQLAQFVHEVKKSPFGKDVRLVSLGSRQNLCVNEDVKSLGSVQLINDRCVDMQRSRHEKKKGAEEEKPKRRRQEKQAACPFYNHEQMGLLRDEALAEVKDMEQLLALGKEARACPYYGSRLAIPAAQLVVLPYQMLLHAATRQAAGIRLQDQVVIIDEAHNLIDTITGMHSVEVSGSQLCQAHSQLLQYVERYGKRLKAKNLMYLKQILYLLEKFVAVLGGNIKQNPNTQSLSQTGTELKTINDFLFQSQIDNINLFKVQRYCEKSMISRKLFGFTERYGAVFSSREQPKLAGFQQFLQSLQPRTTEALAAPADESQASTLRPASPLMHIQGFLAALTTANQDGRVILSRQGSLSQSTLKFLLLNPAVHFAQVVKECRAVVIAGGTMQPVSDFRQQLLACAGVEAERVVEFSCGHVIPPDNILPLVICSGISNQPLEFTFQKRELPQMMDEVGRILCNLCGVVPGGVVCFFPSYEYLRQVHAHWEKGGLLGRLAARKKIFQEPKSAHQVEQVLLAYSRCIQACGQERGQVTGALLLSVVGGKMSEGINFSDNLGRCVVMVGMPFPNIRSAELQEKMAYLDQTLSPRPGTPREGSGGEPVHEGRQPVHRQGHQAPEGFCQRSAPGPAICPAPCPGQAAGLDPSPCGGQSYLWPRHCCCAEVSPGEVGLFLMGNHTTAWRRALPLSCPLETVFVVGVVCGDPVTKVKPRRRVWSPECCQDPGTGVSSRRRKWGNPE
UniProt Q6ICB0: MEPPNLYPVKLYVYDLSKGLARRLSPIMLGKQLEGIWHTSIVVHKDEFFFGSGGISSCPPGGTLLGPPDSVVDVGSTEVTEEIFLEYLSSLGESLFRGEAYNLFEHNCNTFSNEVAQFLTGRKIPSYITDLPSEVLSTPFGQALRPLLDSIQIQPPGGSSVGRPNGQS
UniProt Q99418: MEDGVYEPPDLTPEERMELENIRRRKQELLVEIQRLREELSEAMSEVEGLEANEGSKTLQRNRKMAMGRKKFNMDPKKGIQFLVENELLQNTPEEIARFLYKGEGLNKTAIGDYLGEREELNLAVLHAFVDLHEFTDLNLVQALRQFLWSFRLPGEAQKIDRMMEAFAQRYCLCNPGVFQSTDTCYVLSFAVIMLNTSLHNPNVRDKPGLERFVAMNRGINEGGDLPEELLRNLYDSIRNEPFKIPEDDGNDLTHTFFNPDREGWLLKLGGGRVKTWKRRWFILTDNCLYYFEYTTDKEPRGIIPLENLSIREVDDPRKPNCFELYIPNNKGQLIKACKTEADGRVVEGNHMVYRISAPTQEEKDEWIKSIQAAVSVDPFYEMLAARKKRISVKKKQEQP
UniProt P35638, whole entry, looked up: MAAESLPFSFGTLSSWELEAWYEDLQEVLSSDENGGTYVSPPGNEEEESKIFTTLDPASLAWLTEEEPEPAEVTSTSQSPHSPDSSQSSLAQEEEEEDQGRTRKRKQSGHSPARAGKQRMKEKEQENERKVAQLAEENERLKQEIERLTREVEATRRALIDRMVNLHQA
UniProt P17661, whole entry, looked up: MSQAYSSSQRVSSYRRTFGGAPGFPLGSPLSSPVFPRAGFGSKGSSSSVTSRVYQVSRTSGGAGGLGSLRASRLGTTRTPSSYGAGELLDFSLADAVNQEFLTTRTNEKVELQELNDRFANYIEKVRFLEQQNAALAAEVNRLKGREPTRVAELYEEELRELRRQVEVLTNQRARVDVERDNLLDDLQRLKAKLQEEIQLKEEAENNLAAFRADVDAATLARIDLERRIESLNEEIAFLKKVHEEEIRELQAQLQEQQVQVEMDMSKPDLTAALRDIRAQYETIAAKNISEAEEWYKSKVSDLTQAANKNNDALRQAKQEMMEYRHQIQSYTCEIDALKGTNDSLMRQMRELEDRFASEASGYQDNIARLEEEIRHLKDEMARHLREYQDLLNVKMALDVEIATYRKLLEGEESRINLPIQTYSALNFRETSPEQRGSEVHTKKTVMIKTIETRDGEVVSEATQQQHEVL
UniProt Q9H9R9: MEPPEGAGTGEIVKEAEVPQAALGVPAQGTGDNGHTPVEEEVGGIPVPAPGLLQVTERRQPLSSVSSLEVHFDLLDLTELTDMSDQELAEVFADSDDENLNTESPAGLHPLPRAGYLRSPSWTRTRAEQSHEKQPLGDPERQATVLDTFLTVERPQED
UniProt Q8WV16: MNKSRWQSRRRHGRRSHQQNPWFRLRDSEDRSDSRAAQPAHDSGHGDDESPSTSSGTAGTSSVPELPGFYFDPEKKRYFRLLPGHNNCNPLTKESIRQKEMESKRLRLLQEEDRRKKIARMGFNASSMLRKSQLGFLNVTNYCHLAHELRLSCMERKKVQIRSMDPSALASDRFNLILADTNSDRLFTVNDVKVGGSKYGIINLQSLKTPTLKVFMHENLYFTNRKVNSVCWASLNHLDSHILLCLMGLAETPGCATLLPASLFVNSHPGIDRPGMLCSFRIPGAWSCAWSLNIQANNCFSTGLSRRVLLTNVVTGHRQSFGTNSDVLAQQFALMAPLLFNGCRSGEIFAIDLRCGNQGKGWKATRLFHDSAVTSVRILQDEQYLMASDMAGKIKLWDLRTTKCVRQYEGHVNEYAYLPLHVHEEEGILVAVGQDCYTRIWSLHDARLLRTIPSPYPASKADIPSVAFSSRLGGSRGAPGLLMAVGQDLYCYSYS
UniProt Q9UBU7: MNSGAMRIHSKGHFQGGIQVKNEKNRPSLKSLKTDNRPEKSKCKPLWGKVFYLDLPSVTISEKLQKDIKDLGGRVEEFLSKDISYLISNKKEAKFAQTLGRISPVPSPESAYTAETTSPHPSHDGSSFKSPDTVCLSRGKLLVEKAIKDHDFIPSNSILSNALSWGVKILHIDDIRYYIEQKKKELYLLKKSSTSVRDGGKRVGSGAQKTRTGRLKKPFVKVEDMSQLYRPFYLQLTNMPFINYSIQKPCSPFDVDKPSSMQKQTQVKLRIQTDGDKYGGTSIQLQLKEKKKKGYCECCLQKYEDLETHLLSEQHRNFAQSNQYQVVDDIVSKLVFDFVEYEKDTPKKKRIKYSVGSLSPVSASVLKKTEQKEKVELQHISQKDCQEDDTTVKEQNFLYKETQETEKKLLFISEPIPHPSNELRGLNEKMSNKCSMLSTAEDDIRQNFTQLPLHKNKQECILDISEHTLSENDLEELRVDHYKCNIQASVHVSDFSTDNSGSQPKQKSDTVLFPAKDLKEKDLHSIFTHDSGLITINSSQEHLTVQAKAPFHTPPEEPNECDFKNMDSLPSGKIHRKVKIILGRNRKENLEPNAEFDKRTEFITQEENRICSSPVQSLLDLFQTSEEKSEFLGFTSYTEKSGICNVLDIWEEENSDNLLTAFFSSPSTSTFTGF
UniProt Q9UJU6: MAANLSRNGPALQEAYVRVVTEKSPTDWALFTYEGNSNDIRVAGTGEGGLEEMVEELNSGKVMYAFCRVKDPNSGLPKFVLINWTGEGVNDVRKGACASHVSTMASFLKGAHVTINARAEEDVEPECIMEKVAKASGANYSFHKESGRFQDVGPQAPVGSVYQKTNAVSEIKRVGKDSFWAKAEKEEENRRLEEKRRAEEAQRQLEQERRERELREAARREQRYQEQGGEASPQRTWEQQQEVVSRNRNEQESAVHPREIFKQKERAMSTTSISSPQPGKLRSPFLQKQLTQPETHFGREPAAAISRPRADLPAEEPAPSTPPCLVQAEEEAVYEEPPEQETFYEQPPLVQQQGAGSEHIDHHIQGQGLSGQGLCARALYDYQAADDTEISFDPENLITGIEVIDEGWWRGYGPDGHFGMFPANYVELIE
UniProt Q6VVX0: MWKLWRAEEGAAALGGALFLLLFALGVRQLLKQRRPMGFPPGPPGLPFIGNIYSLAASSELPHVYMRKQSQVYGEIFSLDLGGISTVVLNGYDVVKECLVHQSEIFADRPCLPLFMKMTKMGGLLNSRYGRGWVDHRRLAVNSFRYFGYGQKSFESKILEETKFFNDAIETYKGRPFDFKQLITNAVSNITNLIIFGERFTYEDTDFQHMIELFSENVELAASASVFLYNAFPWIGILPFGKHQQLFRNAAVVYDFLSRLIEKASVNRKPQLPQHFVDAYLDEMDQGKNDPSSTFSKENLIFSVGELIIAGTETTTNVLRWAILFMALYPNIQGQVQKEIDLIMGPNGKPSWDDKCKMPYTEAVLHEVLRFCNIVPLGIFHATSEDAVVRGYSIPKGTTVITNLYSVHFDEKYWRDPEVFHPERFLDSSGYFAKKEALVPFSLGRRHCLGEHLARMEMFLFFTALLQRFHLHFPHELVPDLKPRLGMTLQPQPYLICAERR
UniProt Q8N465: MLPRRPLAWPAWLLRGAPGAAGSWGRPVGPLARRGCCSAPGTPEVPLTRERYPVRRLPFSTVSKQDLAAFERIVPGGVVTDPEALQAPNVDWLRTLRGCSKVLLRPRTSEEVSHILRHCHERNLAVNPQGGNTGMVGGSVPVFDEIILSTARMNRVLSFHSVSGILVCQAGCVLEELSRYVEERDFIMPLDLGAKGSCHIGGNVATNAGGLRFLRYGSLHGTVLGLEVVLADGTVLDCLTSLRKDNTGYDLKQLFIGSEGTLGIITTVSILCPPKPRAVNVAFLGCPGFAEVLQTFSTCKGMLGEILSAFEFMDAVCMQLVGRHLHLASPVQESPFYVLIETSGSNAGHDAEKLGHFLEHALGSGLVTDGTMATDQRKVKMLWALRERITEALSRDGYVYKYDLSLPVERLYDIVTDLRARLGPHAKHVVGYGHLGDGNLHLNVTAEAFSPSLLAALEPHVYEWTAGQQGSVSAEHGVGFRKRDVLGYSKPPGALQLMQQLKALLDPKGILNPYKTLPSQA

[1] = compound: Cc1nc(Nc2n[nH]c3c2CN(C(=O)N[C@H](CN(C)C)c2ccccc2)C3(C)C)c2sccc2n1
In short: as §1

dasatinib = compound: Cc1nc(Nc2ncc(C(=O)Nc3c(C)cccc3Cl)s2)cc(N2CCN(CCO)CC2)n1 [dasatinib]
In short: as §1

[2] = compound: Cc1ncc(-c2ccnc(Nc3ccc(S(C)(=O)=O)cc3)n2)n1C(C)C
In short: as §1

[3] = compound: Cn1cc(-c2ccc3c(c2)CCN3C(=O)Cc2cccc(C(F)(F)F)c2)c2c(N)ncnc21
In short: as §1

quisinostat = compound: Cn1cc(CNCC2CCN(c3ncc(C(=O)NO)cn3)CC2)c2ccccc21 [quisinostat]
In short: as §1

tipifarnib = compound: Cn1cncc1[C@@](N)(c1ccc(Cl)cc1)c1ccc2c(c1)c(-c1cccc(Cl)c1)cc(=O)n2C [tipifarnib]
In short: as §1

[4] = compound: NC(=O)Nc1cc(-c2cccc(F)c2)sc1C(=O)N[C@H]1CCCNC1
In short: as §1

[5] = compound: NC(=O)c1cnc(N[C@@H]2CCCC[C@@H]2N)nc1Nc1cccc(-n2nccn2)c1
In short: as §1

[6] = compound: NC1(c2ccc(-c3nc4ccn5c(=O)[nH]nc5c4cc3-c3ccccc3)cc2)CCC1
In short: as §1

[7] = compound: NCC(=O)Nc1ccc(-n2nc(C(F)(F)F)cc2-c2ccc3c(ccc4ccccc43)c2)cc1
In short: as §1

vorinostat = compound: O=C(CCCCCCC(=O)Nc1ccccc1)NO [vorinostat]
In short: as §1

silmitasertib = compound: O=C(O)c1ccc2c(c1)nc(Nc1cccc(Cl)c1)c1ccncc12 [silmitasertib]
In short: as §1

[8] = compound: O=C1NC(=O)C(c2cnc3ccccn23)=C1c1cn2c3c(cc(F)cc13)CN(C(=O)N1CCCCC1)CC2
In short: as §1

entospletinib = compound: c1cn2cc(-c3ccc4cn[nH]c4c3)nc(Nc3ccc(N4CCOCC4)cc3)c2n1 [entospletinib]
In short: as §1

Measured: log2 fold change

DCPS (UniProt Q96C86)
inactive: nilotinib 0.006 | [1] -0.014 | dasatinib 0.019 | [2] 0.026 | [3] 0.001 | quisinostat -0.049 | tipifarnib 0 | [4] 0.013 | [5] 0.024 | [6] -0.003 | [7] -0.009 | vorinostat 0.017 | silmitasertib 0.004 | [8] 0.01 | entospletinib -0.027

DCAF10 (UniProt Q5QP82)
inactive: nilotinib -0.011 | [1] 0.076 | dasatinib -0.07 | [2] 0.019 | [3] 0.055 | quisinostat 0.04 | tipifarnib 0.04 | [4] 0.044 | [6] 0.063 | [7] -0.027 | vorinostat 0.012 | silmitasertib 0 | [8] -0.071 | entospletinib -0.002

DDX51 (UniProt Q8N8A6)
inactive: nilotinib 0.159 | [1] -0.149 | dasatinib -0.049 | [2] -0.015 | [3] 0.069 | quisinostat -0.054 | tipifarnib 0.138 | [4] 0.054 | [5] 0.073 | [6] 0.002 | vorinostat -0.161 | silmitasertib 0.045 | [8] 0.049

CYTH1 (UniProt Q15438)
inactive: nilotinib 0.056 | [1] -0.143 | [2] 0.162 | quisinostat -0.007 | tipifarnib -0.209 | [4] -0.009 | [5] 0.087 | [6] 0.018 | vorinostat -0.072 | silmitasertib 0.056 | [8] 0.052 | entospletinib -0.003

DDX11 (UniProt Q96FC9)
inactive: nilotinib -0.024 | [1] -0.061 | dasatinib -0.03 | [2] -0.012 | [3] -0.011 | quisinostat -0.119 | tipifarnib 0.074 | [4] 0.04 | [6] 0.017 | [7] -0.036 | vorinostat -0.308 | silmitasertib 0.033 | [8] -0.028

DDX4 (UniProt Q9NQI0)
inactive: nilotinib -0.108 | [1] 0.043 | dasatinib 0.014 | [2] -0.085 | [3] 0.076 | tipifarnib 0.028 | [5] 0.062 | [6] 0.059 | [7] 0.019 | vorinostat -0.213 | silmitasertib 0.101 | entospletinib 0.011

DDX39B (UniProt F6R6M7)
inactive: nilotinib -0.278 | [1] 0.05 | [2] 0.016 | tipifarnib 0.219

DESI1 (UniProt Q6ICB0)
inactive: nilotinib 0.068 | [1] 0.049 | dasatinib -0.062 | [2] -0.051 | [3] 0.023 | quisinostat -0.077 | tipifarnib -0.068 | [4] 0.1 | [7] -0.078 | [8] -0.071 | entospletinib -0.085

CYTH2 (UniProt Q99418)
inactive: nilotinib 0.01 | [1] -0.112 | dasatinib -0.009 | [2] 0.001 | [3] -0.018 | tipifarnib 0.018 | [5] 0.015 | [6] -0.005 | vorinostat -0.139 | silmitasertib 0.044 | entospletinib -0.022

DDIT3 isoform 2 (UniProt P35638)
inactive: nilotinib -0.007 | [1] 0.14 | [2] -0.031 | quisinostat -0.164 | tipifarnib -0.02 | [4] -0.026 | [7] 0.05 | [8] 0.005 | entospletinib 0.099

DCTD (UniProt D6RAD7)
inactive: nilotinib -0.13 | [1] 0.017 | [2] 0.083 | tipifarnib 0.109

DES (UniProt P17661)
inactive: nilotinib 0.009 | [1] -0.04 | dasatinib -0.024 | [2] 0.004 | [3] -0.057 | quisinostat -0.162 | tipifarnib -0.008 | [4] 0 | [5] 0.041 | [6] 0.034 | [7] 0.108 | vorinostat 0.097 | silmitasertib 0.03 | [8] 0.05 | entospletinib 0.027

DBNDD1 isoform 3 (UniProt Q9H9R9)
inactive: nilotinib 0.09 | [1] -0.223 | dasatinib -0.079 | [2] 0.085 | [3] -0.427 | quisinostat -0.139 | tipifarnib 0.044 | [4] 0.018 | [5] -0.064 | [6] 0.005 | vorinostat -0.005 | silmitasertib -0.103 | [8] 0.095 | entospletinib 0.305

DCAF4 (UniProt Q8WV16)
inactive: nilotinib 0.019 | [1] 0.089 | dasatinib -0.007 | [2] -0.131 | [3] -0.073 | quisinostat -0.152 | tipifarnib 0.138 | [4] -0.001 | [5] -0.16 | [8] 0.033 | entospletinib -0.087

DDX19A (UniProt Q9NUU7)
inactive: nilotinib -0.023 | [1] 0.045 | dasatinib 0.048 | [2] -0.008 | [3] 0.02 | quisinostat -0.024 | tipifarnib -0.044 | [4] -0.022 | [5] -0.004 | [6] 0.03 | [7] 0.023 | vorinostat -0.045 | silmitasertib -0.032 | [8] -0.004 | entospletinib -0.013

DBF4 (UniProt Q9UBU7)
inactive: nilotinib 0.05 | [1] 0 | dasatinib 0.091 | [2] 0.17 | [3] -0.021 | quisinostat 0.038 | tipifarnib -0.146 | [4] 0.043 | [6] 0.07 | [7] 0.059 | vorinostat -0.226 | silmitasertib -0.138 | [8] 0.028 | entospletinib 0.002

DBNL (UniProt Q9UJU6)
inactive: nilotinib -0.058 | [1] -0.081 | dasatinib -0.011 | [2] -0.109 | [3] 0.156 | tipifarnib -0.002 | [5] -0.05 | [6] 0.062 | vorinostat -0.063 | silmitasertib 0.002

DDX46, A0A0C4DG89
inactive: nilotinib -0.026 | [1] -0.293 | dasatinib 0.027 | [2] -0.195 | [3] -0.04 | tipifarnib -0.281 | [5] 0.032 | [7] -0.041 | entospletinib -0.093

CYP2R1 (UniProt Q6VVX0)
inactive: nilotinib -0.086 | [1] 0.038 | dasatinib 0.047 | [2] 0.036 | [3] 0.011 | tipifarnib -0.037 | [5] -0.042 | [6] 0.063 | [7] -0.017 | vorinostat 0.085 | silmitasertib -0.029 | entospletinib 0.021

D2HGDH (UniProt Q8N465)
inactive: nilotinib 0.016 | [1] 0.067 | dasatinib -0.007 | [2] -0.084 | [3] 0.047 | quisinostat -0.007 | tipifarnib -0.089 | [4] 0.022 | [5] 0.015 | [6] -0.02 | [7] 0.026 | vorinostat 0.214 | silmitasertib -0.027 | [8] -0.016 | entospletinib 0.011

Reprinted from above (6 entries):
DCAF4 (UniProt Q8WV16)
inactive: nilotinib 0.019 | [1] 0.089 | dasatinib -0.007 | [2] -0.131 | [3] -0.073 | quisinostat -0.152 | tipifarnib 0.138 | [4] -0.001 | [5] -0.16 | [8] 0.033 | entospletinib -0.087

DDX19A (UniProt Q9NUU7)
inactive: nilotinib -0.023 | [1] 0.045 | dasatinib 0.048 | [2] -0.008 | [3] 0.02 | quisinostat -0.024 | tipifarnib -0.044 | [4] -0.022 | [5] -0.004 | [6] 0.03 | [7] 0.023 | vorinostat -0.045 | silmitasertib -0.032 | [8] -0.004 | entospletinib -0.013

DBF4 (UniProt Q9UBU7)
inactive: nilotinib 0.05 | [1] 0 | dasatinib 0.091 | [2] 0.17 | [3] -0.021 | quisinostat 0.038 | tipifarnib -0.146 | [4] 0.043 | [6] 0.07 | [7] 0.059 | vorinostat -0.226 | silmitasertib -0.138 | [8] 0.028 | entospletinib 0.002

DBNL (UniProt Q9UJU6)
inactive: nilotinib -0.058 | [1] -0.081 | dasatinib -0.011 | [2] -0.109 | [3] 0.156 | tipifarnib -0.002 | [5] -0.05 | [6] 0.062 | vorinostat -0.063 | silmitasertib 0.002

DDX46, A0A0C4DG89
inactive: nilotinib -0.026 | [1] -0.293 | dasatinib 0.027 | [2] -0.195 | [3] -0.04 | tipifarnib -0.281 | [5] 0.032 | [7] -0.041 | entospletinib -0.093

CYP2R1 (UniProt Q6VVX0)
inactive: nilotinib -0.086 | [1] 0.038 | dasatinib 0.047 | [2] 0.036 | [3] 0.011 | tipifarnib -0.037 | [5] -0.042 | [6] 0.063 | [7] -0.017 | vorinostat 0.085 | silmitasertib -0.029 | entospletinib 0.021
